Measurements as given in article PMC4551915, “Bacteriophage GIL01 gp7 interacts with host LexA repressor to enhance DNA binding and inhibit RecA-mediated auto-cleavage” (Nucleic Acids Research, 2015).
No constants are given. Whether binding was seen depends on the method and setting. Binding can be weak; no strength is given. Where a sequence is shown, tags or fusion partners need not be part of it.

Biological target: T1, His6-LexA (Bacillus thuringiensis LexA repressor) (B. thuringiensis) (UniProt A0RH75)
T1 sequence: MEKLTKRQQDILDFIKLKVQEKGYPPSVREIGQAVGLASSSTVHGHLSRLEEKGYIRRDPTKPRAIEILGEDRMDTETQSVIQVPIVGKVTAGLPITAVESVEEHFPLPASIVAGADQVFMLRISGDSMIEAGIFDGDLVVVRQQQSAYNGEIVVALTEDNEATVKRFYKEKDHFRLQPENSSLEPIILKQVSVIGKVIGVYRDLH
Test: native gel or EMSA; His6-LexA (8 nM) and His6-gp7 (340 nM) with 5' 32P-labelled P1 promoter DNA probes (-25 to +176; wild type, dinBox1 mutant, dinBox1b mutant); 80 mM NaCl, 25 mM Tris pH 7.5, 5 mM EDTA, 2 mM DTT, 0.1 mg/ml BSA, poly(dI-dC); 30 min at room temperature; native 6% polyacrylamide gel; supershift of the LexA-DNA complex; both purified

With “His6-gp7 (bacteriophage GIL01 gp7, product of ORF7)” the binding was “binds”.
